Test results taken from paper PMC12816671.
Weaker means in comparison with the reference protein, sequence or condition of that experiment. Construct, isoform or probe ends are uncertain for at least one entry.

Chains of the proteins cited; added tags and fusions are not shown. Residues count along the entry.
UniProt P12956, 539-609 K596A: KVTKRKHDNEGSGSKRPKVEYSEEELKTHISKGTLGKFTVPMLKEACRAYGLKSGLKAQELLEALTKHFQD

Molecular target: Ku70 SAP domain K596A (Homo sapiens) (UniProt P12956)
Assay: EMSA
Details: SAP EMSA: 105 mM KCl (400 bp) or 46 mM KCl (153 bp), 3 mM Tris-HCl pH 7.5, 0.1 mM EDTA, 3-4% glycerol, 15 min room temp, agarose (0.8% or 1.5%), recombinant protein, residues 539-609

Sequence | binding result (105 mM KCl, probe letters rebuilt from the primers and the genome) | binding result (46 mM KCl)
ACTTGACTCATGATTTCTTACCTATTAGTGGTTGAACAGCATCGGACTCAGATAGTAATCCACGCTCTTTTAAAATGTCAACAAGAGAATCTCTACCATGAACAAAATGTGACTCATATCTAAACCAGTCCTTGACGAACGTGCCAAGCATATTAAGCCACTTCTCCTCATCCAACGCGTCAGTTTTTGACAGAATCGTTAGTTGATGGCGAAAGGTCGCAAAGTAAGAGCTTCTCGAGCTGCGCAAGGATAGGTCGAATTTTCTCATTTTCCGCCAGCAGTCCACTTCGATTTAATTCGTAAACAAGCAGTAGTAATTCCTGCTTTATCAAGATAATTTTTCGACTCATCAGAAATATCCGAAAGTGTTAACTTCTGCGTCATGGAAGCGATAAAACTC (double strand) [400 bp PhiX174 fragment] | binds more weakly | –
ATCCTGGAGAATCCCGGTGCCGAGGCCGCTCAATTGGTCGTAGACAGCTCTAGCACCGCTTAAACGCACGTACGCGCTGTCCCCCGCGTTTTAACCGCCAAGGGGATTACTCCCTAGTCTCCAGGCACGTGTCAGATATATACATCCTGTGAT (double strand) [153 bp free DNA] | – | binds more weakly
